Data taken from article PMC12208777.
Results are given in words; binding and its absence hold for the method and conditions named. In cells and extracts the contact can be indirect. Here binding means that the protein was enriched with, or labelled near, the bait; the list need not be complete.

The chains behind the UniProt entries cited, without tags or fusion partners.
UniProt P21271: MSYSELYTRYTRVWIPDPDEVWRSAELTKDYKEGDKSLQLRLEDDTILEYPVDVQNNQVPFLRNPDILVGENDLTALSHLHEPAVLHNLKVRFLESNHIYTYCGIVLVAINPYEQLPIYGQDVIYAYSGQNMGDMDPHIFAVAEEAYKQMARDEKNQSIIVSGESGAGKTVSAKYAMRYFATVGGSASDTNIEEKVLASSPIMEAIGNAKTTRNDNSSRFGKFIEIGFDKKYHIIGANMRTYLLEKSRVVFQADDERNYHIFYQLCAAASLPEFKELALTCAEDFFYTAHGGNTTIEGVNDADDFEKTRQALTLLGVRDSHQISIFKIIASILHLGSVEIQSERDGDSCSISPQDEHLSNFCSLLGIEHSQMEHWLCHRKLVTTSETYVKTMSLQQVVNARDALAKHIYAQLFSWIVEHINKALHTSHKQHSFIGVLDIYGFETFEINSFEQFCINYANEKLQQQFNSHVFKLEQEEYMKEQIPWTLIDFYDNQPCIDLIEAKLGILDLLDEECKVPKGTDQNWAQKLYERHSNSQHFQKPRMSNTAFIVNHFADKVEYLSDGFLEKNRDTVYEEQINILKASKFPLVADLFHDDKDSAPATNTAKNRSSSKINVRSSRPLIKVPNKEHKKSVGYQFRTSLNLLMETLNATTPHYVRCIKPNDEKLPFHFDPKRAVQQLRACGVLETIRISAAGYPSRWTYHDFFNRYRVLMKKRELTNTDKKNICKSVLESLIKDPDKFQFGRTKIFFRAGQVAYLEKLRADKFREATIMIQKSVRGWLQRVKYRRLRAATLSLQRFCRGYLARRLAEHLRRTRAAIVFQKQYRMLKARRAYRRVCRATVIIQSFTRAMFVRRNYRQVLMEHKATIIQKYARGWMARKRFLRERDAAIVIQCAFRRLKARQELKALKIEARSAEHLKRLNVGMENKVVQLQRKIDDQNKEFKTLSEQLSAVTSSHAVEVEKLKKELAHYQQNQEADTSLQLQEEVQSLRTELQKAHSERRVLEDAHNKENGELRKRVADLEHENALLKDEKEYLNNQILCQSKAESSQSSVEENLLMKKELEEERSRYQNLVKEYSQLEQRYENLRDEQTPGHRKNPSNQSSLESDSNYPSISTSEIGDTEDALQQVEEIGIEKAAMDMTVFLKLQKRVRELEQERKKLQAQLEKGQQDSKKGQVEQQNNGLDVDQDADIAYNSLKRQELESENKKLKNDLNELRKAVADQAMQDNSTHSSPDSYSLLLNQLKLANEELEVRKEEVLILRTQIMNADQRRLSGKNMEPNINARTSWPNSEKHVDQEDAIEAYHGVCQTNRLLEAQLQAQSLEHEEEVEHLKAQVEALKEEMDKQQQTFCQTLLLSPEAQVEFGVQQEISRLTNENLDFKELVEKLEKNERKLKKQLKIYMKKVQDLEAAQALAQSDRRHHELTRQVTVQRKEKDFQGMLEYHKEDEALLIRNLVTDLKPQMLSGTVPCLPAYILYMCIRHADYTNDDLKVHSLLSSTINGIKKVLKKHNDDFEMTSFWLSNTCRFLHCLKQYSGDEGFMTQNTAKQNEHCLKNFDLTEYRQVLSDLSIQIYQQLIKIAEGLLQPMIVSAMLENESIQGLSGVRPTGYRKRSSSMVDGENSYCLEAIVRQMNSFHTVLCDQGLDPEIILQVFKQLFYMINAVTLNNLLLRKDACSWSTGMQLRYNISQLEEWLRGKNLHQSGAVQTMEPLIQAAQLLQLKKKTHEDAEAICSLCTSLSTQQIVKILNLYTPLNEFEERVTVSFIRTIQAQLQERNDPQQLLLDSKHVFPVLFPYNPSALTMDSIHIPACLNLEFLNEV

Biological target: myosin-5b (mouse (endogenous in mouse heart and adult mouse cardiomyocytes)) (UniProt P21271)
Assay: affinity purification with mass spectrometry; myosin-5b immunoprecipitation followed by liquid chromatography mass spectrometry-based proteomics; adult mouse cardiomyocytes from six wild-type and five knockout animals

- binding: binds
B1: adenosine triphosphate synthase F1 sub-unit d (protein, UniProt Q9D3D9 23-168)
chain: AEAAAAPAPAAGPGQMSFTFASPTQVFFDSANVKQVDVPTLTGAFGILASHVPTLQVLRPGLVVVHTEDGTTTKYFVSSGSVTVNADSSVQLLAEEAVTLDMLDLGAARANLEKAQSELSGAADEAARAEIQIRIEANEALVKALE
